Reference: PubChem BioAssay AID743121 (NCATS, 2013)

- Purpose: 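Genes whose silencing strengthens cell killing by camptothecin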 (primary screen)
- Cell system: MDA-MB-231 cells, a human breast cancer line
- Knock-down reagent: single siRNA against human genes, 20 nM siRNA (0.8 pmol per well)
- Timing: 120 h (drug added 48 h after transfection, read 72 h later)
- Challenge: camptothecin 20 nM (about EC30) for 72 h; vehicle 0.1% DMSO in parallel plates
- Measurement: 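CellTiter-Glo ATP signal, scaled to control siRNA as percent viability; sensitisation given as log2 of untreated divided by camptothecin-treated viability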
- Scale: log2 vehicle/camptothecin viability: higher = stronger sensitisation to camptothecin; viability with camptothecin and viability without drug: higher = more viable cells
- Rule for the call: 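Each gene scored by redundant siRNA activity (RSA) over its individual siRNA ratios; a gene is called active at p < 0.001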
The whole screen tested about 26,000 reagents; shown is a random part of them. 167 of all reagents (0.63%) count as active. 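Calls are per gene from RSA p-values that are not deposited; an individual active-marked siRNA can sensitise only weakly.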 The numbers tell different reagents against one gene apart. Reagent sequences are not shown.

no.	target	reagent no.	log2 vehicle/camptothecin viability	viability with camptothecin (% of control)	viability without drug (% of control)	Outcome
1	GEMIN5	1	-0.394	48.2	36.7	inactive
2	GEMIN5	2	-0.517	118	82.6	inactive
3	GEMIN5	3	-0.133	123	113	inactive
4	GEMIN5	4	0.0914	78.5	83.7	inactive
5	LRRC58	1	-0.277	70.1	57.9	inactive
6	LRRC58	2	-0.336	17.3	13.7	inactive
7	LRRC58	3	0.0643	100	105	inactive
8	OR8G2P	1	-0.275	122	101	inactive
9	OR8G2P	2	0.237	69.1	81.5	inactive
10	OR8G2P	3	-0.308	37.1	30	inactive
11	OR8G2P	4	-0.133	105	95.9	inactive
12	FZD9	1	-0.0489	105	101	inactive
13	FZD9	2	0.142	104	114	inactive
14	FZD9	3	-0.239	118	99.7	inactive
15	FZD9	4	-0.148	35.8	32.3	inactive
16	PSTPIP2	1	-0.543	81.4	55.9	inactive
17	PSTPIP2	2	-0.726	101	60.9	inactive
18	PSTPIP2	3	-0.102	86.1	80.2	inactive
19	PSTPIP2	4	-0.25	83.5	70.2	inactive

Copied from the list.
Entry of PSTPIP2 #2 under “Outcome”: inactive
Under “viability with camptothecin (% of control)”, OR8G2P #1 has 122
Entry of PSTPIP2 #1 in “viability without drug (% of control)”: 55.9
LRRC58 #2, viability without drug (% of control) → 13.7
GEMIN5 #3, log2 vehicle/camptothecin viability → -0.133
LRRC58 #3, viability without drug (% of control): 105

Next results follow:
no.	target	reagent no.	log2 vehicle/camptothecin viability	viability with camptothecin (% of control)	viability without drug (% of control)	Outcome
20	CCNA1	1	-0.199	71.2	62	inactive
21	CCNA1	2	-0.267	110	91.4	inactive
22	CCNA1	3	0.117	84.2	91.3	inactive
23	BTNL3	1	0.236	31.1	36.6	inactive
24	BTNL3	2	-0.0498	108	104	inactive
25	BTNL3	3	0.0209	91.7	93	inactive
26	BTNL3	4	0.0187	43.4	44	inactive
27	CCN5	1	-0.275	75.1	62.1	inactive
28	CCN5	2	1.13	7.29	16	inactive
29	CCN5	3	-0.255	68	57	inactive
30	CCN5	4	-0.127	99.7	91.3	inactive
31	RELT	1	-0.13	88.9	81.2	inactive
32	RELT	2	-0.402	84.1	63.7	inactive
33	RELT	3	-0.196	81.9	71.5	inactive
34	RELT	4	0.508	41.6	59.2	inactive
35	TRPM8	1	-0.736	112	67.5	inactive
36	TRPM8	2	-0.145	73	66	inactive
37	TRPM8	3	-0.3	61.4	49.9	inactive
38	TRPM8	4	-0.255	67.4	56.5	inactive
39	RNF157	1	0.478	73.5	102	inactive
40	RNF157	2	-0.0813	88.3	83.4	inactive
41	RNF157	3	0.0409	93.9	96.6	inactive
42	RNF157	4	-0.222	57.3	49.1	inactive
43	KIFC1	1	0.648	23	36	inactive
44	KIFC1	2	-0.262	56.6	47.2	inactive
45	KIFC1	3	-0.369	45.1	34.9	inactive
46	KIFC1	4	0.282	31.3	38.1	inactive
